These are yes or no findings as the source states them, for the method shown.

The experiment concerns the target GacS histidine kinase periplasmic detector domain (GacSPD, Met38-Gly164) (Pseudomonas aeruginosa (PAK)) (UniProt G3XD98). The experiment can be described thus: SEC-MALS; purified GacSPD; estimated molecular weight 15 kDa; conditions not given; both purified.

“GacS histidine kinase periplasmic detector domain (GacSPD, Met38-Gly164) (from UniProt G3XD98 38-164) (domain or fragment)”: the binding entry is “no binding”.

Source of the values: PMC5595915.
